The whole screen tested about 2,100 compounds, of which about 210 (10%) were called active. This list was built around the results that the source calls inconclusive (neither active nor inactive); the mix of calls is not that of the screen. Calls come from the whole dose curve; as a rule, active = well fitted inhibition curve with a large enough effect; inconclusive = small, poorly fitted or top-dose-only effect, or effect the other way; inactive = no such curve, though single readings can be large or run the other way. Where the call is inconclusive, the potency comes from a doubtful curve fit.
Experiment: IN Cell qHTS Assay for Inhibitors of the mTORC1 Signaling Pathway in MEF (Tsc2-/-, p53-/-) Cells: Sytravon; note: nearly all actives have a fitted effect of over 60% in size
Conditions: phospho-rpS6 immunofluorescence, 24 h; series mostly up to 38.3 µM
Procedure, shortened: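 Immunofluorescence of rpS6 phosphorylation (Ser235/236) in mouse embryonic fibroblasts lacking Tsc2 and p53, after 24 h compound exposure; Hoechst-normalized signal imaged, each well scored as % active cells relative to rapamycin (7.5 nM) and DMSO controls.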
Potency is the fitted concentration of half-maximal effect.

Structure (SMILES) | Potency
COc1ccc(CNC(=O)C2CCN(c3nc4ccc(C)cc4[nH]3)CC2)cc1 | inconclusive: 23.3 µM [falling, single point]
Cc1cccc2c1-c1sc(C(=O)NCCc3ccc(Cl)cc3)cc1CO2 | inconclusive: 23.3 µM [falling, single point]
COc1ccc(NC(=O)c2ccc3c(c2)c(C)c(C)n3Cc2ccc(F)cc2)cc1 | active: 10.4 µM
CC(C)(C)C1CCc2c(sc(NC(=O)c3cccc(Cl)c3)c2C(N)=O)C1 (stereo not given) | active: 7.36 µM
CN1C(=O)c2ccccc2Sc2ccc(NC(=O)NCc3cccc(Cl)c3)cc21 | inconclusive: 18.5 µM [falling, single point]
Cc1ccc(NC(=O)CCNS(=O)(=O)c2cccc3nonc23)cc1Cl | inactive
Cc1cccc(NC(c2ccccc2C)c2ccc3ccc(C)nc3c2O)n1 (stereo not given) | inactive
COc1ccc(CNC(=O)CSc2n[nH]c(-c3ccc(OC)cc3)n2)cc1 | inconclusive: 9.27 µM [falling, partial curve, poor fit]
CCc1ccc(CNC(=O)Cn2c(-c3cccs3)cc3cc(F)ccc32)cc1 | inconclusive: 1.65 µM [falling, full curve, poor fit]
Nc1nonc1C(=O)NCCNCc1ccc(Cl)c(Cl)c1 | inconclusive: 0.0037 µM [falling, full curve, poor fit]
COc1cccc(-c2cc(C(=O)Nc3ccn(Cc4ccc(C)cc4)n3)no2)c1 | inactive
O=C(Nc1cc(Cl)cc(Cl)c1)c1ccc(F)c(S(=O)(=O)NC2CCCCC2)c1 | inactive
O=C(NCCN1CCCCC1)c1ccc(Cn2c(SCc3cccc(F)c3)nc3cccnc32)cc1 | inconclusive: 14.7 µM [falling, partial curve, poor fit]
O=C(CCS(=O)(=O)c1nc(-c2ccc3c(c2)OCO3)cc(C(F)(F)F)n1)Nc1ccc(Br)cc1 | inconclusive: 4.65 µM [falling, full curve, poor fit]
COc1ccc(C(=O)Nc2ccc3nc4c(c(Nc5ccccc5OC)c3c2)CCCC4)c(OC)c1 | inconclusive: 3.69 µM [falling, full curve, poor fit]
CCOc1ccc(CN2CCN(Cc3ccc4c(c3)c3ccccc3n4CC)CC2)cc1 | inconclusive: 16.5 µM [falling, single point]
COc1ccc(OC)c(C2CC(=O)c3c([nH]c(C(=O)OCc4ccc(C)cc4)c3C)C2)c1 (stereo not given) | inconclusive: 0.165 µM [falling, full curve, poor fit]
COc1cc(CNC(=O)c2ccc3nc(Cc4ccccc4)oc3c2)cc(OC)c1OC | inactive
COc1cccc(C(=O)CC2(O)C(=O)N(Cc3ccccc3)c3ccccc32)c1 (stereo not given) | inactive
CCN(CC)CCOC(=O)c1ccc(NC(=O)c2cc3c(s2)-c2ccccc2OC3)cc1 | inconclusive: 23.3 µM [falling, single point]
Cc1ccc(CN2CCC(CNC(=O)Nc3ccc(C)c(C)c3)C2)cc1 (stereo not given) | inconclusive: 23.3 µM [falling, single point]
COC(=O)COc1ccc(-c2nnc(Nc3ccc(O)cc3)c3ccccc23)cc1 | inactive

Structure (SMILES) | Potency
CCCn1c2ccccc2c2cnn(CC(=O)NCCCN3CCCCC3CC)c(=O)c21 (stereo not given) | inconclusive: 26.1 µM [falling, single point]
CCC(C)NC(=O)c1cc(Sc2cccc(Cl)c2)nc2ccccc12 (stereo not given) | inactive
Cc1ccc(S(=O)(=O)Cc2ccc(C(=O)N3CCN(c4cccc(Cl)c4)CC3)o2)cc1 | inconclusive: 5.85 µM [falling, single point]
CCC1=Nc2cc(C(=O)NCCN(CC)CC)ccc2Sc2ccccc21 | inconclusive: 26.1 µM [falling, partial curve, poor fit]
CCSc1ccccc1C(=O)Nc1ccc(-c2nc3ccccc3s2)c(O)c1 | active: 4.65 µM
CCOC(=O)c1c(-c2ccccc2)oc2ccc(N(C(C)=O)S(=O)(=O)c3ccc(CC)cc3)cc12 | inactive
COc1cccc(-n2c(SCC(=O)Nc3c(C)cc(C)cc3C)nc3c([nH]c4ccccc43)c2=O)c1 | inactive
Cc1cccc(NS(=O)(=O)c2ccc3[nH]c4c(c3c2)CCCCCC4)c1 | inactive
COc1cc(OC)c(NS(=O)(=O)c2ccc3c(c2)CCCN3C(C)=O)cc1Cl | inconclusive: 9.27 µM [falling, partial curve, poor fit]
Cc1ccc(NC(=O)CSc2nc3ccccc3nc2N2CCOCC2)cc1 | inconclusive: 26.1 µM [falling, single point]
O=S1(=O)c2ccccc2N(Cc2cccc(Cl)c2)c2ccccc21 | inconclusive: 4.14 µM [falling, single point]
COc1cccc(/C=C/C(=O)Nc2ccc3nc(N4CCN(C)CC4)cc(C)c3c2)c1OC | inconclusive: 0.369 µM [falling, full curve, poor fit]
COc1ccc(Nc2nc(N)c3cc(OC)c(OC)cc3n2)cc1 | inconclusive: 18.5 µM [falling, single point]
COc1ccc(C(=O)CC2(O)C(=O)N(Cc3cccc(C(F)(F)F)c3)c3ccccc32)cc1 (stereo not given) | active: 4.65 µM
CCOc1c(Br)cc(C2CC(=O)Nc3cc4c(cc32)OCO4)cc1OC (stereo not given) | inconclusive: 26.1 µM [falling, single point]
O=C(CSc1n[nH]c(-c2ccc(F)cc2)n1)NCc1ccccc1Cl | inconclusive: 18.5 µM [falling, single point]
O=C1CCSC2(C(=O)N(Cc3ccc(F)cc3)c3ccccc32)N1c1ccc(Cl)cc1 (stereo not given) | inconclusive: 26.1 µM [falling, single point]
O=S(=O)(c1ccc(Cl)cc1)c1nc(-c2ccco2)oc1SCc1ccccc1F | inactive
COc1cccc(Cc2nc3ccccc3nc2SCC(=O)N2CCCc3ccccc32)c1 | inconclusive: 23.3 µM [falling, single point]
Cc1ccc(C)c(N2CCN(CCCNC(=O)c3cnn(-c4ccc(F)cc4)c3C3CCN(C(=O)OC(C)(C)C)CC3)CC2)c1 | inconclusive: 26.1 µM [falling, single point]
O=C(CCS(=O)(=O)c1ccccc1)N(Cc1cccnc1)c1nc2ccc(F)cc2s1 | inconclusive: 14.7 µM [falling, single point]
Cc1sc(-c2cc3c([nH]c2=O)CC(c2ccccc2)CC3=O)nc1-c1ccc(Cl)cc1 (stereo not given) | inconclusive: 0.0037 µM [falling, full curve, poor fit]

Structure (SMILES) | Potency
CCCCS(=O)(=O)c1oc(-c2ccc(F)cc2)nc1S(=O)(=O)c1ccc(C)cc1 | active: 6.56 µM
CCCCN1C(=O)C(O)(CC(=O)c2ccc(C)cc2C)c2cc(Br)ccc21 (stereo not given) | inconclusive: 23.3 µM [falling, single point]
Cc1ccc2[nH]c(=O)c3cc(C(=O)NCCCN4CCC(C)CC4)sc3c2c1 | active: 5.85 µM
COc1ccc(C)cc1NC(=O)Nc1cccc(-c2noc(C)n2)c1 | inconclusive: 23.3 µM [falling, single point]
Cc1ccc(OCC(=O)Nc2ccccc2OCc2cc(=O)n3ccccc3n2)cc1C | inconclusive: 4.65 µM [falling, full curve, poor fit]
CCOC(=O)C(C)Sc1nc(-c2ccccc2)ccc1C#N (stereo not given) | inconclusive: 0.0083 µM [falling, full curve, poor fit]
Cc1cccc(Nc2nnc(-c3ccc(C)c(S(=O)(=O)N4CCN(C)CC4)c3)c3ccccc23)c1 | active: 14.7 µM
CC(C)CCNC(=O)C(=O)Nc1c2c(nn1-c1ccc(Cl)cc1)CSC2 | inconclusive: 18.5 µM [falling, single point]
CCCC(=O)Nc1cccc(-c2cn3c(C)csc3n2)c1 | inactive
NC(=O)CSc1nc2ccc(NC(=O)COc3ccccc3Cl)cc2s1 | inactive
CCOc1ccc(N(Cc2ccccc2)C(=O)c2nc(SC)ncc2Cl)cc1 | inconclusive: 20.7 µM [falling, single point]
COc1ccc(OCc2nc3c4c(-c5ccccc5)c(-c5ccccc5)oc4ncn3n2)cc1 | active: 4.14 µM
CCN1CCOC(=O)C1CC(=O)Nc1cc(C)cc(C)c1 (stereo not given) | inconclusive: 1.47 µM [falling, partial curve, poor fit]
O=C(Nc1ccc2nc(SCC(=O)N3CCc4ccccc43)sc2c1)c1ccc(F)cc1 | inconclusive: 4.14 µM [falling, partial curve, poor fit]
CCn1ccc2cc(S(=O)(=O)N3CCCN(C(=O)NCC(C)C)CC3)ccc21 | inactive
CC(C)(C)C1CCc2c(sc3nc(-c4cc5cc(Br)ccc5oc4=O)[nH]c(=O)c23)C1 (stereo not given) | inconclusive: 26.1 µM [falling, single point]
CCOC(=O)c1c(NC(=O)c2ccc(S(=O)(=O)N3CCC(C)CC3)cc2)sc2c1CCN(CC)C2 | inactive
CCOC(=O)c1ccc(N2C(=O)c3n[nH]c(-c4ccco4)c3C2c2ccc(O)c(OCC)c2)cc1 (stereo not given) | inconclusive: 18.5 µM [falling, partial curve, poor fit]
CCOc1ccc(-c2nc(SCC(=O)c3ccccc3)n[nH]2)cc1 | inconclusive: 0.131 µM [falling, full curve, poor fit]
CCC(C)Sc1oc(-c2ccco2)nc1S(=O)(=O)c1ccc(C)cc1 (stereo not given) | inconclusive: 26.1 µM [falling, single point]
COc1ccc2c(Sc3ccccc3)c(C(=O)NCCCN3CCCCC3)[nH]c2c1 | inconclusive: 0.117 µM [falling, full curve, poor fit]

By substructure: the entries above containing a tert-butyl group (3)
Structure (SMILES) | Potency
CC(C)(C)C1CCc2c(sc(NC(=O)c3cccc(Cl)c3)c2C(N)=O)C1 (stereo not given) | active: 7.36 µM
Cc1ccc(C)c(N2CCN(CCCNC(=O)c3cnn(-c4ccc(F)cc4)c3C3CCN(C(=O)OC(C)(C)C)CC3)CC2)c1 | inconclusive: 26.1 µM [falling, single point]
CC(C)(C)C1CCc2c(sc3nc(-c4cc5cc(Br)ccc5oc4=O)[nH]c(=O)c23)C1 (stereo not given) | inconclusive: 26.1 µM [falling, single point]
